Test [1] addresses sirtuin1 (SIRT1) (human (endogenous in OECM1 and HSC3)) (UniProt Q96EB6). Put plainly: co-IP; nuclear extracts of OECM1 and HSC3 cells, lysed with RIPA buffer; 2 mg protein immunoprecipitated with a SIRT1 or Smad4 antibody (Pierce Crosslink IP Kit); western blot for Smad2, Smad4 and SIRT1; endogenous proteins.
Test [2] addresses Smad4 (human (endogenous in OECM1 and HSC3)) (UniProt Q13485). The description is as above.

The chains behind the UniProt entries cited, without tags or fusion partners. Where a name states a change or a piece, a line headed by the entry shows the natural chain unless it says otherwise.
UniProt Q96EB6: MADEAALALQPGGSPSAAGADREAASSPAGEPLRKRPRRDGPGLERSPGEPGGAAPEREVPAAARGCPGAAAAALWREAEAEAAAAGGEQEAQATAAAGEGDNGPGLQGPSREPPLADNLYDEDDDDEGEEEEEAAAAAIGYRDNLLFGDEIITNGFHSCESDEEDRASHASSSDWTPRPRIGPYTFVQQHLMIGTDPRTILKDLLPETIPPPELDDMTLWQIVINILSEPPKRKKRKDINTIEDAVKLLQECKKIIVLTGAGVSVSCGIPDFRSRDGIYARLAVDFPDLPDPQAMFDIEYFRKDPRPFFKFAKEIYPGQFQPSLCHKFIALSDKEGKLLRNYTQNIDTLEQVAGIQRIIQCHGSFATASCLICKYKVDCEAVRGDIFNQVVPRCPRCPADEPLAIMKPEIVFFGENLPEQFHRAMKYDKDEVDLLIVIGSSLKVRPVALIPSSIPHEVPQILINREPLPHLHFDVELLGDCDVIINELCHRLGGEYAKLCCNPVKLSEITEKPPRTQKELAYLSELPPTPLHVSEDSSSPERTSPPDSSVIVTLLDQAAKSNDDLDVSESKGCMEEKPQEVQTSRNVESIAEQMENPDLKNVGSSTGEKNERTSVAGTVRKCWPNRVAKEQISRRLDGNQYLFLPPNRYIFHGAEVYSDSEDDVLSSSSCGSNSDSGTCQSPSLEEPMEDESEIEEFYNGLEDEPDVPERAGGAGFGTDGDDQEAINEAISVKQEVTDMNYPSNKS
UniProt Q13485: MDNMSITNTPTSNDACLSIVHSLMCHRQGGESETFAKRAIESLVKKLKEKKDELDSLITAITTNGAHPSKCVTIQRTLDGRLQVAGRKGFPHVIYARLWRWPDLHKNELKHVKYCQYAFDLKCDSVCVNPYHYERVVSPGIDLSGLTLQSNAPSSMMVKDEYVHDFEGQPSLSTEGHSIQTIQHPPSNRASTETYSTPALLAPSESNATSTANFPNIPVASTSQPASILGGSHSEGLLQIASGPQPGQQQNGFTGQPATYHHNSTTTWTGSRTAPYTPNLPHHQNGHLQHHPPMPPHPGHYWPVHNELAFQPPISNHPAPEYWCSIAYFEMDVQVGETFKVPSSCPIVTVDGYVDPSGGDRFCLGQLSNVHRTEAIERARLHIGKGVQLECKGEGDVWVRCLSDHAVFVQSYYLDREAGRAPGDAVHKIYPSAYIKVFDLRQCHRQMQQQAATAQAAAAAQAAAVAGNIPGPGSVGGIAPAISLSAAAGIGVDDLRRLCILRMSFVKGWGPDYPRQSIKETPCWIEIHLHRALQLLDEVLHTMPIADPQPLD

No constants are given. Whether binding was seen depends on the method and setting. Binding seen in cells or lysates may run through a third protein. Some entries that bind do so weakly or less than the wild type.

On to Smad4 (from UniProt Q13485 1-552), for which the binding result in test [1] is “binds”.
On to “sirtuin1 (SIRT1) (from UniProt Q96EB6-1 1-747) (enzyme)”, for which the binding result in test [2] is “binds”.

The record behind these values is paper PMC4258025.
